PubChem BioAssay AID493014 (National Center for Advancing Translational Sciences (NCATS), 2011)
Some of the results follow. Shown are side measurements of this screen, not its main read-out; they come without a call. Compounds called inactive in the main read-out are mostly missing here. The note in brackets gives the kind of curve behind each potency; many fits are weak.

Assay: qHTS Assay to Find Inhibitors of Chronic Active B-Cell Receptor Signaling
Details: ABC-DLBCL IkBa-CBG/CBR reporter, luminescence ratio (green luciferase fused to IkBa over red control in TMD8 lymphoma cells), 4 h
In short: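 Doxycycline induced both beetle luciferases in TMD8 lymphoma cells; IKK-driven degradation limits the IkappaBalpha-fused green signal, while red luminescence normalises for cell number and nonspecific effects. Compounds tested up to 46 uM, 4 hrs.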

[1] = measured here: CBR red luminescence, cell number
[2] = measured here: IkBa-CBG green luminescence

Row | Compound | AC50 [1] | AC50 [2]
1 | CC(=O)N1CCN(C(=O)CCNS(=O)(=O)c2ccc(Br)cc2)CC1 | 4.61 µM [rising, partial curve, poor fit] | 
2 | COc1cc2c(cc1OC)CN(C(=O)C1CCC(=O)N(CCCN3CCOCC3)C1)CC2 (stereo not given) | 6.31 µM [falling, full curve, poor fit] | 
3 | CC(C)Cc1nnc(NC(=O)C2=COCCO2)s1 | 29.1 µM [falling, single point] | 
4 | COc1ccc(-c2csc(NC(=O)c3cccc(S(=O)(=O)N4CCN(C)CC4)c3)n2)cc1 | 7.94 µM [falling, partial curve] | 
5 | COc1ccc(Cl)cc1NC(=O)c1cc(-c2cc(C)ccc2O)n[nH]1 | 15.8 µM [falling, partial curve, poor fit] | 
6 | c1ccc(CCNc2ncnc3scc(C4COc5ccccc5O4)c23)cc1 (stereo not given) | 20.6 µM [falling, single point] | 
7 | COc1cccc(CC(=O)Nc2ccc(-c3nc4ccccc4s3)cc2Cl)c1 | 2.82 µM [rising, full curve] | 
8 | CCOc1ccc(C(=O)c2ccncc2)cc1 | 18.4 µM [rising, single point] | 
9 | O=C(O)COc1ccccc1/C=N/NC(=O)CSc1nc2ccccc2s1 | 6.31 µM [rising, single point] | 
10 | Nc1ncnc2c1ncn2[C@@H]1O[C@H](CNC(=O)[C@H](N)Cc2cscn2)[C@@H](O)[C@H]1O | 18.4 µM [rising, partial curve, poor fit] | 
11 | CCN(CC)CCCNC(=O)CCC(=O)NNc1nc2ccccc2c2nc(C)nn12 | 15.8 µM [falling, single point] | 35.5 µM [falling, single point]
12 | O=C(N/N=C/C=C/c1ccco1)c1ccccc1Cl | 3.55 µM [falling, full curve, poor fit] | 
13 | O=C(NC(=S)Nc1nc2c(s1)CSc1ccccc1-2)c1ccccc1 | 16.4 µM [falling, single point] | 32.6 µM [rising, partial curve, poor fit]
14 | O=C1N=C2SCCN2/C1=C\c1ccc(Cl)cc1 | 0.103 µM [falling, full curve, poor fit] | 
15 | O=C(COc1ccc(Cl)cc1)Nc1nnc(S(=O)(=O)N2CCCCCC2)s1 | 2.82 µM [rising, full curve, poor fit] | 
16 | COc1cc(-c2ccc3sc(-c4ccsc4)c(C#CCO)c3c2)cc(OC)c1OC | 32.6 µM [falling, single point] | 
17 | COc1ccc(C(C(=O)Nc2ccc(F)cc2)N(C(=O)Cn2nnc3ccccc32)C2CC2)cc1 (stereo not given) | 11.2 µM [falling, single point] | 
18 | COc1ccccc1C(=O)Nc1ccc(OCc2nnc3c4ccccc4c(C)nn23)cc1 | 2.91 µM [rising, partial curve] | 
19 | COc1ccccc1CNC(=O)c1c(N)n(CCCN2CCOCC2)c2nc3ccccc3nc12 | 11.2 µM [falling, partial curve] | 
20 | O=C(OCc1nc2ccccc2s1)c1ccco1 | 5.01 µM [rising, partial curve] | 
21 | CC(C)Oc1ccc(C2CC(=O)N(c3cccc(C(=O)O)c3)C2=O)cc1 (stereo not given) | 35.5 µM [rising, single point] | 

4 entries from above, with tabs.
Row	Compound	AC50 [1]	AC50 [2]
5	COc1ccc(Cl)cc1NC(=O)c1cc(-c2cc(C)ccc2O)n[nH]1	15.8 µM [falling, partial curve, poor fit]	
6	c1ccc(CCNc2ncnc3scc(C4COc5ccccc5O4)c23)cc1 (stereo not given)	20.6 µM [falling, single point]	
7	COc1cccc(CC(=O)Nc2ccc(-c3nc4ccccc4s3)cc2Cl)c1	2.82 µM [rising, full curve]	
8	CCOc1ccc(C(=O)c2ccncc2)cc1	18.4 µM [rising, single point]	

The list continues:

Row | Compound | AC50 [1] | AC50 [2]
22 | C/C(CC(=O)Nc1ccc2c(c1)OCO2)=N\NC(=O)c1ccccc1N | 11.2 µM [falling, partial curve] | 
23 | FC(F)Sc1ccc(NC(=S)NC(c2ccccc2)c2ccccc2)cc1 | 25.1 µM [falling, single point] | 17.8 µM [rising, single point]
24 | CC(O)[C@H]1CNCCN1CCc1cccc2ccccc12 (stereo not given in full) | 23.1 µM [falling, partial curve, poor fit] | 
25 | COc1ccccc1Nc1nc(N)nc(CCl)n1 | 28.2 µM [falling, partial curve, poor fit] | 
26 | CCN(CC)S(=O)(=O)c1ccc2c(c1)[nH]c(=S)n2CC | 0.794 µM [falling, partial curve, poor fit] | 
27 | CC1(C)CC(=O)C2=C(C1)NC(=O)CC2c1cc2c(cc1Br)OCO2 (stereo not given) | 35.5 µM [rising, partial curve, poor fit] | 
28 | O=C(Cc1cccs1)Nc1nc(-c2ccccc2)cs1 | 29.1 µM [falling, single point] | 
29 | O=c1ccc2cc3c([nH]c4ccc(Br)cc43)oc-2c1O | 3.66 µM [falling, partial curve] | 
30 | COc1ccc(-c2c(C)nn3c(N4CCCCCC4)cc(C)nc23)cc1OC | 35.5 µM [falling, single point] | 
31 | C=CCC(COCc1ccccc1)NS(=O)(=O)c1ccccc1Br (stereo not given) | 22.4 µM [rising, single point] | 
32 | Cc1ccc(-c2nn(-c3ccccc3)cc2C(=O)NC2CCC(O)CC2)cc1 (stereo not given) | 1.84 µM [rising, partial curve, poor fit] | 
33 | Cc1ccc(N2C(=O)C(Cl)=C(N3CCOCC3)C2=O)cc1Cl | 8.2 µM [falling, partial curve, poor fit] | 
34 | Cc1cc(C(=O)COC(=O)Cn2c(C(F)(F)F)nc3ccccc32)c(C)n1Cc1ccco1 | 35.5 µM [rising, single point] | 
35 | Cc1ccc([C@@H]2CC=C(C(=O)O)[C@H](c3ccc(Br)cc3)N2S(=O)(=O)c2ccc(C)cc2)cc1 | 29.1 µM [falling, single point] | 
36 | CN(C)Cc1c(-c2ccc(Cl)cc2)nc2ccc(Cl)cn12 | 0.112 µM [rising, full curve, poor fit] | 
37 | CCOC(=O)c1ccccc1NC(=O)C(C)Oc1ccccc1 (stereo not given) | 23.1 µM [rising, single point] | 
38 | Cc1cc(C(=O)OCC(=O)Nc2cc(C)on2)c2ccccc2n1 | 29.1 µM [falling, single point] | 
39 | O=C1C/C(=C/NCc2ccccc2)C(=O)N1 | 29.1 µM [falling, single point] | 
40 | CCOc1ccc(NCc2cccn2-c2nnc(N3CCC(C(=O)NCCCN4CC(C)CC(C)C4)CC3)s2)cc1 (stereo not given) | 17.8 µM [falling, single point] | 
41 | O=[N+]([O-])c1ccc(NCCCNS(=O)(=O)c2ccccc2)cc1 | 12.6 µM [falling, partial curve, poor fit] | 
42 | Cc1cnc(C(=O)N2CCc3c([nH]c4ccccc34)C2c2ccc(F)cc2)cn1 (stereo not given) | 0.631 µM [falling, full curve, poor fit] | 

Row | Compound | AC50 [1] | AC50 [2]
43 | Cc1sc2nc(CN3CCCC3)nc(Cl)c2c1C | 25.9 µM [falling, partial curve, poor fit] | 
44 | O=C(Nc1nccc(-c2cccs2)n1)c1cccs1 | 7.08 µM [falling, partial curve] | 
45 | CC(NC(=O)Cc1ccc(F)cc1)C(c1cccs1)N1CCN(C)CC1 (stereo not given) | 20.6 µM [rising, partial curve] | 
46 | Cc1c(C)c2c(OCC(=O)N[C@@H](CC(C)C)C(=O)O)cc3c(c2oc1=O)CCC(C)(C)O3 | 8.91 µM [falling, partial curve, poor fit] | 
47 | CCOC(=O)C1CCN(C(=O)Nc2ccc(C)c(Cl)c2)CC1 | 5.62 µM [falling, full curve, poor fit] | 
48 | Cc1cc(C(=O)OCC(=O)c2cccs2)ccc1[N+](=O)[O-] | 29.1 µM [rising, partial curve, poor fit] | 
49 | CCCNC(=O)COc1ccc(-c2nn(C)c(=O)c3ccccc23)cc1 | 2.51 µM [rising, partial curve, poor fit] | 
50 | COc1ccc(CN2C(=O)c3ccccc3C2=O)cc1C(=O)N(C)CC(=O)Nc1ccc(F)cc1 | 6.51 µM [falling, single point] | 
51 | Cc1ccnc(NC(=O)c2cc3cc(F)ccc3s2)c1 | 5.62 µM [falling, partial curve] | 
52 | CCOC(=O)c1[nH]c(Cc2[nH]c(C(=O)OCC)c(C)c2CCC(=O)OC)c(CCC(=O)OC)c1C | 3.16 µM [rising, partial curve, poor fit] | 
53 | CCN(CC)CCCNC(=O)c1cn(C)c2ccc(S(=O)(=O)N(C)C)cc2c1=O | 1.16 µM [falling, partial curve, poor fit] | 
54 | Nc1nn(-c2ccccc2)c(N)c1N=Nc1ccc2c(c1)OCO2 | 8.2 µM [falling, partial curve] | 
55 | COc1ccc(N=C(C)C2=C(O)CSC2=O)cc1 | 3.26 µM [rising, single point] | 
56 | CC(=O)Nc1cccc(/C(C)=N/NC(=O)c2ccc(NS(=O)(=O)c3cccs3)cc2)c1 | 11.2 µM [falling, partial curve] | 
57 | COC(=O)CCCCC1SCC(NC(=O)OC)C1NC(=O)OC (stereo not given) | 3.98 µM [rising, full curve, poor fit] | 
58 | CCOC(=O)CCCCCC(=O)Nc1ccc2c(c1)C(=O)N([C@H](C)CO)C[C@@H](C)[C@H](CN(C)S(=O)(=O)c1cn(C)cn1)O2 | 29.1 µM [rising, single point] | 
59 | Cc1csc(NC(=O)CCCNC(=O)c2ccc(Cl)cc2)n1 | 6.51 µM [rising, full curve] | 
60 | O=C1COc2ccc(C(=O)CSc3nnc(Cc4cccs4)n3-c3ccccc3)cc2N1 | 20.6 µM [rising, single point] | 
61 | CCOc1ccc(C(=O)NCC(c2cccs2)S(=O)(=O)c2ccccc2)cc1 (stereo not given) | 0.398 µM [rising, full curve] | 
62 | N#C/C(=C\c1cccnc1)C(=O)Nc1ccccc1[N+](=O)[O-] | 14.1 µM [falling, partial curve, poor fit] | 
